Among the data in publication PMC9788671 are binding values, retold here.

By UniProt entry, the sequences of proteins in these tests, tags left out.
UniProt Q9NZV8: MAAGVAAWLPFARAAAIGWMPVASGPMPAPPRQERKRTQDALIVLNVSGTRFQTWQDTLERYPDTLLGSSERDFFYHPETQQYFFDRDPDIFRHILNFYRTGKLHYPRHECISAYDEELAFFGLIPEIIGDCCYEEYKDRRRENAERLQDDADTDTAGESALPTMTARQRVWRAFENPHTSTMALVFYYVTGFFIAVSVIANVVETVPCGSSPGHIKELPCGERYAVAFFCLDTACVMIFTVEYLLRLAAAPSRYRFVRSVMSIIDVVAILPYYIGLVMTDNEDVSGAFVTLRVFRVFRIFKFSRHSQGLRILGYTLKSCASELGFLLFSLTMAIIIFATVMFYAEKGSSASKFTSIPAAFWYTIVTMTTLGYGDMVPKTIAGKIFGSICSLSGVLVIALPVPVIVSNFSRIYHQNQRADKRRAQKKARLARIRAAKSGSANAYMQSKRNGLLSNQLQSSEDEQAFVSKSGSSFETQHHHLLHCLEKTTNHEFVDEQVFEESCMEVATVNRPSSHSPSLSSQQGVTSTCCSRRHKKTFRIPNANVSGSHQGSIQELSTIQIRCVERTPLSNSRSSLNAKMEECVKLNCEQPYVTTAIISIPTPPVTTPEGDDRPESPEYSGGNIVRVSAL

These are yes or no findings as the source states them, for the method shown. Binding seen in cells or lysates may run through a third protein. These calls come from enrichment with a bait or labelling near it, and not all partners need be listed.

The chains are these.
B1: Brsk1 (protein, UniProt B2DD29 1-778)
chain: MSSGSKEGGGGSPAYHLPHPHPHPPQHAQYVGPYRLEKTLGKGQTGLVKLGVHCITGQKVAVKIVNREKLSESVLMKVEREIAILKLIEHPHVLKLHDVYENKKYLYLVLEHVSGGELFDYLVKKGRLTPKEARKFFRQIVSALDFCHSYSICHRDLKPENLLLDEKNNIRIADFGMASLQVGDSLLETSCGSPHYACPEVIKGEKYDGRRADMWSCGVILFALLVGALPFDDDNLRQLLEKVKRGVFHMPHFIPPDCQSLLRGMIEVEPEKRLSLEQIQKHPWYLGGKHEPDPCLEPAPGRRVAMRSLPSNGELDPDVLESMASLGCFRDRERLHRELRSEEENQEKMIYYLLLDRKERYPSCEDQDLPPRNDVDPPRKRVDSPMLSRHGKRRPERKSMEVLSITDAGSGGSPVPTRRALEMAQHSQRSRSVSGASTGLSSSPLSSPRSPVFSFSPEPGVGDEARGGGSPTSKTQTLPSRGPRGGGAGEQPPPPSARSTPLPGPPGSPRSSGGTPLHSPLHTPRASPTGTPGTTPPPSPGGGVGGAAWRSRLNSIRNSFLGSPRFHRRKMQVPTAEEMSSLTPESSPELAKRSWFGNFISLDKEEQIFLVLKDKPLSSIKADIVHAFLSIPSLSHSVLSQTSFRAEYKASGGPSVFQKPVRFQVDISSSEGPEPSPRRDGSSGGGIYSVTFTLISGPSRRFKRVVETIQAQLLSTHDQPSVQALADEKNGAQTRPAGTPPRSLQPPPGRPDPDLSSSPRRGPSKDKKLLATNGTPLP
B2: Vdac3 (protein, UniProt Q9R1Z0 1-283)
chain: MCSTPTYCDLGKAAKDVFNKGYGFGMVKIDLKTKSCSGVEFSTSGHAYTDTGKASGNLETKYKVCNYGLIFTQKWNTDNTLGTEISWENKLAEGLKLTVDTIFVPNTGKKSGKLKASYRRDCFSVGSKVDIDFSGPTIYGWAVLAFEGWLAGYQMSFDTAKSKLCQNNFALGYKAEDFQLHTHVNDGTEFGGSIYQRVNEKIETSINLAWTAGSNNTRFGIAAKYRLDCRTSLSAKVNNASLIGLGYTQSLRPGVKLTLSALVDGKNFNAGGHKVGLGFELEA
B3: Mccc1 (protein, UniProt Q5I0C3 39-715)
chain: TTPGGSITKVLIANRGEIACRVIRTARKMGVQSVAVYSEADRNSMHVDMADEAYSIGPAPSQQSYLAMEKIIQVAKSSAAQAIHPGYGFLSENMEFAEFCKQEGIIFIGPPSTAIRDMGIKSTSKSIMAAAGVPVVEGYHGNDQSDECLKEHAGKIGYPVMIKAIRGGGGKGMRIIRSEKEFQEQLESARREAKKSFNDDAMLIEKFVDTPRHVEVQVFGDHHGNAVYLFERDCSVQRRHQKIIEEAPAPGIDPEVRRRLGEAAVRAAKAVNYVGAGTVEFIMDSKHNFYFMEMNTRLQVEHPVTEMITGTDLVEWQLRIAAGEKIPLSQEEIPLQGHAFEARIYAEDPDNNFMPGAGPLVHLSTPPPDMSTRIETGVRQGDEVSVHYDPMIAKLVVWASDRQSALSKLRYSLHQYNIVGLRTNVDFLLRLSGHSEFEAGNVHTDFIPQHHKDLLPTHSTIAKESVCQAALGLILKEKEMTSAFKLHTQDQFSPFSFSSGRRLNISYTRNMTLRSGKNDIIIAVTYNRDGSYDMQIENKLFRVLGDLSNEDGYTYLKSSVNGVASKSKFILLDNTIYLFSMEGSIEVGIPVPKYLSPVSAEGTQGGTIAPMTGTIEKVFVKAGDRVKAGDALMVMIAMKMEHTIKAPKDGRIKKVFFSEGAQANRHAPLVEFEEEEV
B4: Nckap1 (protein, UniProt P55161 1-1128)
chain: MSRSVLQPSQQKLAEKLTILNDRGVGMLTRLYNIKKACGDPKAKPSYLIDKNLESAVKFIVRKFPAVETRNNNQQLAQLQKEKSEILKNLALYYFTFVDVMEFKDHVCDLLNTIDVCQVFFDITVNFDLTKNYLDLTVTYTTLMILLSRIEERKAIIGLYNYAHEMTHGASDREYPRLGQMIVDYEHPLKKMMEEFVPHSKSLSDALISLQMVYPRRNLSADQWRNAQLLSLISAPSTMLNPAQSDTMPCEYLSLDAMEKWIIFGFILCHGMLNTEATALNLWKLALQSSSCLSLFRDEVFHIHKAAEDLFVNIRGYNKRINDIRECKEAAVSHAGSMHRERRKFLRSALKELATVLSDQPGLLGPKALFVFMALSFARDEIIWLLRHADNMPKKSADDFIDKHIAELIFYMEELRAHVRKYGPVMQRYYVQYLSGFDAVVLNELVQNLSVCPEDESIIMSSFVNTMTSLSVKQVEDGEVFDFRGMRLDWFRLQAYTSVSKASLSLADHRELGKMMNTIIFHTKMVDSLVEMLVETSDLSIFCFYSRAFEKMFQQCLELPSQSRYSIAFPLLCTHFMSCTHELCPEERHHIGDRSLSLCNMFLDEMAKQARNLITDICTEQCTLSDQLLPKHCAKTISQAVNKKSKKQTGKKGEPEREKPGVESMRKNRLVVTNLDKLHTALSELCFSINYVPNMAVWEHTFTPREYLTSHLEIRFTKSIVGMTMYNQATQEIAKPSELLTSVREYMTVLQSIENYVQIDITRVFNNVLLQQTQHLDSHGEPTITSLYTNWYLETLLRQVSNGHIAYFPAMKAFVNLPTENELTFNAEEYSDISEMRSLSELLGPYGMKFLSESLMWHISSQVAELKKLVVENVDVLTQMRTSFDKPDQMAALFKRLSSVDSVLKRMTIIGVILSFRSLAQEALRDVLSYHIPFLVSSIEDFKDHIPRETDMKVAMNVYELSSAAGLPCEIDPALVVALSSQKSENISPEEEYKIACLLMVFVAVSLPTLASNVMSQYSPAIEGHCNNIHCLAKAINQIAAALFTIHKGSIEDRLKEFLALASSSLLKIGQETDKTTTRNRESVYLLLDMIVQESPFLTMDLLESCFPYVLLRNAYHAVYKQSVTSSA
B5: Map6 (protein, UniProt Q63560 1-952)
chain: MAWPCITRACCIARFWNQLDKADIAVPLVFTKYSEATEHPGAPPQPPAPPQPGLAPPSRAVAIETQPAQGESDAVARATGPAPGPSGDRETAAAPGRSGLGLGAASGSTSGSGPADSVMRQDYRAWKVQRPEPSCRPRSEYQPSDAPFERETQYQKDFRAWPLPRRGDHPWIPKPVQIPATSQPSPPVLGMPKRRPQSQERGPIQLSADARDPEGAGGAGVPAAGKASGADQRDTRRKAGPAWMVTRTEGHEEKPLPPAQSQTQEGGPAAGKASGADQRDTRRKAGPAWMVTRTEGHEEKPLPPAQSQTQEGGPAAGKASGADQRDTRRKAGPAWMVTRTEGHEETPLPPAQSQTQEGGPAAGKASGADQRDTRRKAGPAWMVTRTEGHEETPLPPAQSQTQEGGPAAGKASGADERDTRRKAGPAWMVRRSEGHEQTTAAHAQGTGPEGGKGRAVADALNRQIREEVTSTVSSSYRNEFRAWTDIKPVKPIKAKPQYKPPDDKMVHETSYSAQFKGEASKPTTADNKVVDRRRIRSLYSEPFKESPKVEKPSVQSSKPKKTSTSQKPLRKAKDKQVASGQAAKKKTTESPSATKPDDKEQSKEMNNKLAEAKESRVKPTSDKNQGPVAKEPHKDQGPVAPGLPKGQGPAVQEPLKDQGPMVPGLPKDQAPVVPGSLKGQSPTAPGPPKDQGAVLLGPMKDLGPVAPASVKDQDHMASELLKNKDSVPLAPAKAQSPLLPEPLKNQSPVVPARAKDQSFPAPAPTPLKDPGPVIPEPEKDGAPMVPERRKDQNASIMASLKNEAPVASESVKNQGLGGPEPAKDTGTDLKGHGSVFVAPVKSQGPVVPEPTKGQDPIIPALAKDQGPILPEPPKNQGPPVVLGPIKNQDPVIPVPLKGQDPVVPAPTKDPGPTAPDPLKSQGPRGPQLPTVSPSPPVMIPTVPHAEYIEGSP
B6: Hspa4 (protein, UniProt O88600 1-840)
chain: MSVVGIDLGFQSCYVAVARAGGIETIANEYSDRCTPACVSFGPKNRSVGAAAKSQVISNAKNTVQGFKRFHGRAFSDPFVEAEKSNLAYDIVQLPTGLTGIKVTYMEEERNFTTEQVTAMLLSKLKETAESVLKKPVVDCVVSVPSFYTDAERRSVMDATQIAGLNCLRLMNETTAVALAYGIYKQDLPALEEKPRNVVFVDMGHSAYQVSVCAFNRGKLKVLATAFDTTLGGRKFDEVLVNHFCEEFGKKYKLDIKSKVRALLRLSQECEKLKKLMSANASDLPLSIECFMNDIDVSGTMNRGKFLEMCDDLLARVEPPLRSILDQSKLKKEDIYAVEIVGGATRIPAVKEKISKFFGKELSTTLNADEAVTRGCALQCAILSPAFKVREFSITDVVPYPISLRWNSPAEEGSSDCEVFPKNHAAPFSKVLTFYRKEPFTLEAYYSSPQDLPYPDPAIAQFSVQKVTPQSDGSSSKVKVKVRVNVHGIFSVSSAALVEVHKSEESEEPMETDQNAKEEEKMQVDQEEPHTEEQQPQTPAENKAESEEMETSQAGSKDKKMDQPPQAKKAKVKTSTVDLPIESQLLWQLDREMLGLYTENEGKMIMQDKLEKERNDAKNAVEEYVYEMRDKLSGEYEKFVSEDDRNNFTLKLEDTENWLYEDGEDQPKQVYVDKLAELRTLGQPIKTRFQESEERPKLFEELGKQIQQYMKVISSFKNKEDQYEHLDAADMTKVEKSTNEAMEWMNSKLNLQNKQSLTADPVVKTKEIEAKIKELTNICSPIISKPKPKVEPPKEEPKHAEQNGPVDGQGDNPGTQAAEHGADTAVPSDGDKKLPEMDID
B7: Vdac2 (protein, UniProt P81155 1-295)
chain: MAECCVPVCQRPICIPPPYADLGKAARDIFNKGFGFGLVKLDVKTKSCSGVEFSTSGSSNTDTGKVSGTLETKYKWCEYGLTFTEKWNTDNTLGTEIAIEDQICQGLKLTFDTTFSPNTGKKSGKIKSAYKRECINLGCDVDFDFAGPAIHGSAVFGYEGWLAGYQMTFDSAKSKLTRSNFAVGYRTGDFQLHTNVNNGTEFGGSIYQKVCEDFDTSVNLAWTSGTNCTRFGIAAKYQLDPTASISAKVNNSSLIGVGYTQTLRPGVKLTLSALVDGKSFNAGGHKLGLALELEA

For the first experiment, the target named is TAP-Kv4.2 (human) (UniProt Q9NZV8). As to the kind of experiment: affinity purification with mass spectrometry; TAP-Kv4.2 expressed by lentivirus in rat hippocampal neurons, harvested at DIV14; strong lysis buffer (1% Triton X-100, 0.5% deoxycholate in PBS, pH 7.4); streptavidin resin, then calmodulin resin; gel cut into high and low molecular weight fragments; no MS of the control sample.
Turning to B1, the binding entry is listed as “binds”. For B2, the binding result was “binds”. For B3, the binding entry is recorded as “binds”. As to B4, the binding result is given as “binds”.

For the molecule B5, the binding result is “binds”. B6: the binding result is “binds”.

For B7, the binding entry is “binds”.

The next experiment has the same target. Briefly: affinity purification with mass spectrometry; TAP-Kv4.2 expressed by lentivirus in rat hippocampal neurons, harvested at DIV14; weak lysis buffer of the kit (0.1% NP-40); streptavidin resin, then calmodulin resin; gel cut into high and low molecular weight fragments; no MS of the control sample.
For B1, the binding result was “binds”. On to B3, for which the binding result is recorded as “binds”. As for B4, the binding entry is reported as “binds”.

Consider B5, for which the binding result is on record as “binds”. For the molecule B6, the binding entry is “binds”.
